These are yes or no findings as the source states them, for the method shown. In cells and extracts the contact can be indirect. A result given as binding can be weak or reduced; the word gives no strength. For some of these results: Tags and fused reporters may be left off the sequences shown.

The chains behind the UniProt entries cited, without tags or fusion partners. Where a name states a change or a piece, a line headed by the entry shows the natural chain unless it says otherwise.
UniProt Q9CAG8: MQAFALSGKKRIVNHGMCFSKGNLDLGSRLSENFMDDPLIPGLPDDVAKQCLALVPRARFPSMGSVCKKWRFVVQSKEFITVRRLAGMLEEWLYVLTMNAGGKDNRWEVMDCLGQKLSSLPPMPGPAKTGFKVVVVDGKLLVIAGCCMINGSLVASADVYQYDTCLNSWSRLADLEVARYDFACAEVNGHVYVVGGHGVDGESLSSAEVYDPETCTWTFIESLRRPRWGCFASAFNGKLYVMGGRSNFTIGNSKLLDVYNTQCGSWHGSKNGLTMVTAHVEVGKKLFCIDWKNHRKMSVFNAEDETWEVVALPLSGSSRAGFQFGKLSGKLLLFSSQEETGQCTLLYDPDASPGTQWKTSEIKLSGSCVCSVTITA
UniProt Q9FTA2: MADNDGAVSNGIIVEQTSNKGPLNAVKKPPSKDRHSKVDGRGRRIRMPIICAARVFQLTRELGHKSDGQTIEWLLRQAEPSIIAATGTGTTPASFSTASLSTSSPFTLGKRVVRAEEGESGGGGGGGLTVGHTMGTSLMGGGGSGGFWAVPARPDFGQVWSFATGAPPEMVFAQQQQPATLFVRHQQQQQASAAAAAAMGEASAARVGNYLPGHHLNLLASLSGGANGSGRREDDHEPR
UniProt Q93Z00: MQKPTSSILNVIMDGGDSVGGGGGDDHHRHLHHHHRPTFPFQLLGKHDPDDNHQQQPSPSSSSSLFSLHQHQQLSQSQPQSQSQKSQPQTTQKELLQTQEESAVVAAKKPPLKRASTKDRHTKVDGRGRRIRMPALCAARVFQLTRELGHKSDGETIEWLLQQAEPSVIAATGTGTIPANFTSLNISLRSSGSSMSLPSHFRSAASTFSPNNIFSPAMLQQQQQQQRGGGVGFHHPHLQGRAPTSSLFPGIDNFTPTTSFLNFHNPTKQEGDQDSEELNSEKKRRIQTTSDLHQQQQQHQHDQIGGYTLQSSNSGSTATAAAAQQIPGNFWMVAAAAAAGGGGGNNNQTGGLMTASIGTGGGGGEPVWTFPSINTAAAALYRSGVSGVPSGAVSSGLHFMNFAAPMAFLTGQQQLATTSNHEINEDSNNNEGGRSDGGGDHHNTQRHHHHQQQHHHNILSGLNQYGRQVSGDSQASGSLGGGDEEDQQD

For assay [1], the target named is LAO1-YN (Arabidopsis thaliana) (UniProt Q9CAG8). The assay is described as follows: split reporter; BiFC: LAO1-YN co-infiltrated with TCP14-YC or TCP21-YC into leaves of 1-month-old N. benthamiana; YFP signal after 48 h by confocal microscopy.
Assay [2] deals with HA-LAO1 (Arabidopsis thaliana) (UniProt Q9CAG8). The assay is described as follows: pull-down; semi-in vivo pull-down: HA-LAO1 enriched from 35S: HA-LAO1 seedling extract on anti-HA affinity beads, washed, mixed with 1 ug purified His-tagged protein for 3 h at 4 C in IP buffer (50 mM Tris-HCl pH 7.5, 150 mM NaCl, 1 mM MgCl2, 0.1% NP40); blots anti-His and anti-HA; only the binder purified.

Assay [3] concerns the target T1, GFP-DSK2B (Arabidopsis thaliana) (UniProt Q9SII8).
T1 sequence: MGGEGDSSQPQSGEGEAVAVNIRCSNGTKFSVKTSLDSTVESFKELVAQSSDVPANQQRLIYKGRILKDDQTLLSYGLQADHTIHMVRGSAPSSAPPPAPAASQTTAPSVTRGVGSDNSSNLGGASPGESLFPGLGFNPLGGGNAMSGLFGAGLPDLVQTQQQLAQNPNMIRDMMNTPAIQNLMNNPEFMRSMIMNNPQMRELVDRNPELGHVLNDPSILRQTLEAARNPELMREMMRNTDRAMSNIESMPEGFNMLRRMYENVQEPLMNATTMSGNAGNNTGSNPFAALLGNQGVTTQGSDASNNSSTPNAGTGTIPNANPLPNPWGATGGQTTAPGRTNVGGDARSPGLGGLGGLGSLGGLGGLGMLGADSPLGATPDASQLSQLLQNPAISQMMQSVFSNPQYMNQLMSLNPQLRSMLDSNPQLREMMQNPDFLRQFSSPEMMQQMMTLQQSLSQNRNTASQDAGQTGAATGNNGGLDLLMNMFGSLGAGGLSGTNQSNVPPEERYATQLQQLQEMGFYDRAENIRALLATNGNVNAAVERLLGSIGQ
The experiment in a line: co-IP; seven-day-old Arabidopsis seedlings; IP buffer (50 mM Tris-HCl pH 7.5, 150 mM NaCl, 1 mM MgCl2, 0.1% NP40); anti-GFP affinity beads, 4 C, 2 h; blots anti-GFP and anti-HA or anti-DSK2.

On to TCP21-YC (from UniProt Q9FTA2 1-239), for which the binding entry in assay [1] is “binds”. In the case of TCP14-YC (from UniProt Q93Z00 1-489), the binding result in assay [1] is “binds”. His-TCP14 (from UniProt Q93Z00 1-489): the binding entry in assay [2] was “binds”. In the case of HA-LAO1 (from UniProt Q9CAG8), the binding entry in assay [3] is recorded as “binds”.
